Experimental data: patent publication US7611693B2, “Mechanism-based targeted pancreatic beta cell imaging and therapy” (Board of Regents, The Univerisity of Texas System, priority 2003, dated 2009)
Part of at least one peptide drawing is inferred or uncertain, most often the ends.

Experiments:
pancreas [1] = assay: Scintigraphic imaging in rodents (planar gamma imaging); assay type: in vivo; settings: normal rat and 13762 tumor-bearing rats, 300 μCi via tail vein, FIGS. 36-44
pancreas [2] = assay: Scintigraphic imaging in rabbits (VX-2 tumor-bearing); assay type: in vivo, rabbit; settings: VX-2 tumor-bearing New Zealand white rabbits, 1 mCi iv, FIGS. 45 and 46

CC(C)[C@H]1CC[C@H](C(=O)N[C@H](Cc2ccccc2)C(=O)NCCNC(=O)CN(CCN(CCN(CC(=O)O)CC(=O)NCCNC(=O)[C@@H](Cc2ccccc2)NC(=O)[C@H]2CC[C@H](C(C)C)CC2)CC(=O)O)CC(=O)O)CC1 [^99mTc-DTPA-nateglinide, metal not drawn]
visualization of pancreas by planar scintigraphy (pancreas [1]): pancreas could be visualized
visualization of pancreas by scintigraphy (pancreas [2]): pancreas could be visualized
